In the supplement of paper PMC10849652:
The other results are listed elsewhere or left out.

The chains behind the UniProt entries cited, without tags or fusion partners. Where a name states a change or a piece, a line headed by the entry shows the natural chain unless it says otherwise.
UniProt Q96ME7: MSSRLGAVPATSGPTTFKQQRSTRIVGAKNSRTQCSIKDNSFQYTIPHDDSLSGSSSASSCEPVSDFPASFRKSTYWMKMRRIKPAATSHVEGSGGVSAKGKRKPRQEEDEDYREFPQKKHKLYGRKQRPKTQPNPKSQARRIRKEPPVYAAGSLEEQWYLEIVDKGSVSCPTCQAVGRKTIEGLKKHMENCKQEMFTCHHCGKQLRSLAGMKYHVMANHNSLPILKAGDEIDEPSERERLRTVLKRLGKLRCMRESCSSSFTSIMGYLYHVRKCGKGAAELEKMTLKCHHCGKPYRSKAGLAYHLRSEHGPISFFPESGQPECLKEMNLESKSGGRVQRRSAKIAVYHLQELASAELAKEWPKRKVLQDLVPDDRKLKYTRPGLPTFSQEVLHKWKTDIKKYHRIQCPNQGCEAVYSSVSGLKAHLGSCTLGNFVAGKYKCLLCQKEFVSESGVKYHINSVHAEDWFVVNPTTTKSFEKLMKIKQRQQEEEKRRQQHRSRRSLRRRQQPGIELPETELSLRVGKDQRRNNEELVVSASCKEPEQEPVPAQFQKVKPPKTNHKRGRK
UniProt Q96KM6: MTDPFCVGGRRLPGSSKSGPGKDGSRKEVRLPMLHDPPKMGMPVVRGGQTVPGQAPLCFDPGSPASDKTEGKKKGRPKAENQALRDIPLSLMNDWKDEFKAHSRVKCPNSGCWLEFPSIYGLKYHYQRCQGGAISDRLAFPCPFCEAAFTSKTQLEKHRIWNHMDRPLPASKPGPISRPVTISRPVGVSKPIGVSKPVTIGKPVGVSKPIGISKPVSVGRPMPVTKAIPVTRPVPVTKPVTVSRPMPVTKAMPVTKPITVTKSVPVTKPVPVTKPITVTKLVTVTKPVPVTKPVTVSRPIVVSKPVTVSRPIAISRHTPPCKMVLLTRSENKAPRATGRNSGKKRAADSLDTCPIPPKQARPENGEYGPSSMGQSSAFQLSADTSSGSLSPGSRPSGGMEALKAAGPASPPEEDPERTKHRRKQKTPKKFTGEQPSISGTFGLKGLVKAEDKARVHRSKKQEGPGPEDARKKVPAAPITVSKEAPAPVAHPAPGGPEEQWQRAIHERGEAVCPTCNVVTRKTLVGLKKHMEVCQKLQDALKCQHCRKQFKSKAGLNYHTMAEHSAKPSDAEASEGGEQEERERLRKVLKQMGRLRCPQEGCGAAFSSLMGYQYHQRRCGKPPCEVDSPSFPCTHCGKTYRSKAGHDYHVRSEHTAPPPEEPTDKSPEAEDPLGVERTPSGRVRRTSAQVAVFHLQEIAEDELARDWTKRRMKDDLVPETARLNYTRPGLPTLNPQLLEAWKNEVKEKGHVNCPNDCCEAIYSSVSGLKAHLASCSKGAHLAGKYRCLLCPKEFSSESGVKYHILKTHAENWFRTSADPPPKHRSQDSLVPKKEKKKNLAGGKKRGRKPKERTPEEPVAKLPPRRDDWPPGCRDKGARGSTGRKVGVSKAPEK
UniProt Q8NAF0: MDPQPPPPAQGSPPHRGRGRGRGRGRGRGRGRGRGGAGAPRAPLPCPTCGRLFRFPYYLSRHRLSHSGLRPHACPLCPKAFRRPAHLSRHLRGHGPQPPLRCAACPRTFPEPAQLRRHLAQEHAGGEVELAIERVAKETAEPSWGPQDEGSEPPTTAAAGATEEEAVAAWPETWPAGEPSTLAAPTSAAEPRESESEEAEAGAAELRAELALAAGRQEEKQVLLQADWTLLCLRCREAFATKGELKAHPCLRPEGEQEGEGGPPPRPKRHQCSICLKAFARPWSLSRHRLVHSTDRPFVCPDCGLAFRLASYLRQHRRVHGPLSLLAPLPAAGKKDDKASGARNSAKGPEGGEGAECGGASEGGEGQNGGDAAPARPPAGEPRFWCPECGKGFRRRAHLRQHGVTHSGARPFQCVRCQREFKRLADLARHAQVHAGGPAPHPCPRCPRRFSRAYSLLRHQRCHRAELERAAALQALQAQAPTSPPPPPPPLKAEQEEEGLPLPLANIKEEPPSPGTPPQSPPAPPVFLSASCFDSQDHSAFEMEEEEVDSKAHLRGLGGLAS

Biological target: ZNF512 (UniProt Q96ME7)
Assay: log2 fold change, soluble protein after heating vs DMSO (PISA); higher = thermal stabilisation; K562 cells, 10 uM, 30 min; active = over 0.2 and 3.5 SD of the protein, either way, in both replicates (recomputed)
Method in brief: (§1)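 Quantification of soluble protein used TMTpro 16plex LC-MS/MS, with channel sums equalised. Samples were the supernatant after 21,000xg for 90 min of pooled aliquots from K562 cells (2×10^6 cells/mL) treated with 10 μM compound for 30 min, heated for 3 min over 48°C-58°C, and extracted in PBS with 0.5% NP-40 at 4°C. Values, from duplicates, describe thermal stability against control samples on a log2 fold-change scale.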

log2 fold change, inactive:
CCCCN(Cc1ccc(C(=O)NO)cc1)C(=O)Nc1ccccc1 [Nexturastat A] -0.038, O=C1NC(=O)C(c2cnc3ccccn23)=C1c1cn2c3c(cc(F)cc13)CN(C(=O)N1CCCCC1)CC2 -0.023, CC(C)(O)CC(=O)NCCn1ccc2ncnc(Nc3ccc(Oc4cccc(C(F)(F)F)c4)c(Cl)c3)c21 -0.018, C[C@@H]1COCCN1c1cc(C2(S(C)(=O)=O)CC2)nc(-c2cccc3[nH]ccc23)n1 0.007, Fc1ccc(Cl)cc1-c1nc(Nc2ccncc2)c2nccnc2n1 0.086, CC[C@H](C)[C@H](NC(=O)[C@H]([C@@H](C)CC)N(C)C(C)=O)C(=O)N[C@H](C(=O)N[C@@H](CC(C)C)C(=O)[C@@]1(C)CO1)[C@@H](C)O [epoxomicin] 0.085

Biological target: ZNF512B (UniProt Q96KM6)
Assay: as above
Method in brief: as §1

log2 fold change, inactive:
CCCCN(Cc1ccc(C(=O)NO)cc1)C(=O)Nc1ccccc1 [Nexturastat A] 0.344, O=C1NC(=O)C(c2cnc3ccccn23)=C1c1cn2c3c(cc(F)cc13)CN(C(=O)N1CCCCC1)CC2 0.201, CC(C)(O)CC(=O)NCCn1ccc2ncnc(Nc3ccc(Oc4cccc(C(F)(F)F)c4)c(Cl)c3)c21 0.024, C[C@@H]1COCCN1c1cc(C2(S(C)(=O)=O)CC2)nc(-c2cccc3[nH]ccc23)n1 -0.346, CCn1c(C(=O)N(C2CC2)C2CC2)cc2c3c(ncn3C)c(Nc3cc(C)n(C)n3)nc21 0.196, Fc1ccc(Cl)cc1-c1nc(Nc2ccncc2)c2nccnc2n1 -0.162, CC[C@H](C)[C@H](NC(=O)[C@H]([C@@H](C)CC)N(C)C(C)=O)C(=O)N[C@H](C(=O)N[C@@H](CC(C)C)C(=O)[C@@]1(C)CO1)[C@@H](C)O [epoxomicin] 0.051

Biological target: ZNF579 (UniProt Q8NAF0)
Assay: as above
Method in brief: as §1

log2 fold change, inactive:
Cc1cccc(CC(=O)N2CCc3c2ccc(-c2cn(C)c4ncnc(N)c24)c3F)n1 -0.101, CCCCN(Cc1ccc(C(=O)NO)cc1)C(=O)Nc1ccccc1 [Nexturastat A] 0.004, O=C1NC(=O)C(c2cnc3ccccn23)=C1c1cn2c3c(cc(F)cc13)CN(C(=O)N1CCCCC1)CC2 0.038, NC(=O)Nc1cc(-c2cccc(F)c2)sc1C(=O)N[C@H]1CCCNC1 -0.008, CC(C)(O)CC(=O)NCCn1ccc2ncnc(Nc3ccc(Oc4cccc(C(F)(F)F)c4)c(Cl)c3)c21 -0.018, CS(=O)(=O)c1ccc(-c2cnc(N)c(C(=O)Nc3ccccc3)n2)cc1 0.019, O=C(CCCCCCC(=O)Nc1ccccc1)NO [vorinostat] -0.032, Cc1ccc(Sc2cncc3sc(C(N)=O)cc23)cc1 -0.07, CS(=O)(=O)CCNCc1ccc(-c2ccc3ncnc(Nc4ccc(OCc5cccc(F)c5)c(Cl)c4)c3c2)o1 [lapatinib] 0.05, CCCS(=O)(=O)Nc1ccc(F)c(C(=O)c2c[nH]c3ncc(Cl)cc23)c1F -0.085, CC[C@@H]1C(=O)N(C)c2cnc(Nc3ccc(C(=O)N[C@H]4CC[C@H](N5CCN(CC6CC6)CC5)CC4)cc3OC)nc2N1C(C)C [volasertib] 0.098, Cn1cncc1[C@@](N)(c1ccc(Cl)cc1)c1ccc2c(c1)c(-c1cccc(Cl)c1)cc(=O)n2C [tipifarnib] 0, COc1cc2nc(-c3cc(F)ccc3O)nc(N[C@@H]3CNC[C@H]3C(C)(C)O)c2cc1OC 0.042, C[C@@H]1COCCN1c1cc(C2(S(C)(=O)=O)CC2)nc(-c2cccc3[nH]ccc23)n1 -0.114, CON(C)C(=O)N1N=C(c2cc(F)ccc2F)S[C@@]1(CCCN)c1ccccc1 [filanesib] 0.181, Cc1cc(Nc2cc(CN3CCOCC3)c3nc(C)c(Cc4ccc(Cl)cc4F)n3n2)n[nH]1 [gandotinib] 0.036, Cc1ccc(NC(=O)c2cccc(C(C)(C)C#N)c2)cc1Nc1ccc2ncn(C)c(=O)c2c1 0.043, CS(=O)(=O)N1CCN(Cc2cc3nc(-c4cccc5[nH]ncc45)nc(N4CCOCC4)c3s2)CC1 [pictilisib] 0.02, CN1CCC(CNc2ccc3ncc(-c4cccc(OC(F)(F)F)c4)n3n2)CC1 0.103, Fc1ccc(Cl)cc1-c1nc(Nc2ccncc2)c2nccnc2n1 -0.002, CN1CCN(c2nc(C3=C(c4c[nH]c5ccccc45)C(=O)NC3=O)c3ccccc3n2)CC1 [sotrastaurin] 0.014, Nc1ccccc1NC(=O)c1ccc(CNC(=O)OCc2cccnc2)cc1 [entinostat] -0.036, CC[C@H](C)[C@H](NC(=O)[C@H]([C@@H](C)CC)N(C)C(C)=O)C(=O)N[C@H](C(=O)N[C@@H](CC(C)C)C(=O)[C@@]1(C)CO1)[C@@H](C)O [epoxomicin] -0.024, CCn1cc(-c2ccnc3[nH]c(-c4cccc(CN(C)C)c4)cc23)c(-c2ccc(NC(=O)N(C)C)cc2)n1 0.091
